From the M2OR odorant receptor database
The entries are a selection whose mix differs from that of the whole data set. The calls were merged from several studies; some rest on single wells. Some of the results follow.

What was measured:
Conditions in all cases: stereoisomer not certain
OR5M11 (Homo sapiens) = molecular target: T1, OR5M11 (Homo sapiens) (UniProt Q96RB7)
T1 sequence (whole entry): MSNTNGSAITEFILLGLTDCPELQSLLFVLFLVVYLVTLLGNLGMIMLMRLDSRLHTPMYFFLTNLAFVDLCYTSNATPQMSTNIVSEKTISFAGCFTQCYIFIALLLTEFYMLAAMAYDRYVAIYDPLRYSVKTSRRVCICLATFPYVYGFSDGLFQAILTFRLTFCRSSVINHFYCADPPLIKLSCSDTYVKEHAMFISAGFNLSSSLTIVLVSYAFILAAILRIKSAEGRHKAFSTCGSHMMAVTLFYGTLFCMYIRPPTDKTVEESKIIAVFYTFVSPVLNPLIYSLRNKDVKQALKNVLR
In short: (§1)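 Assay methods differ from source to source, frequently being transient luciferase assays in mammalian cell lines. For each receptor–molecule pair, the label responsive (active) applies when the original authors judged the measured signal statistically different from baseline, and non-responsive (inactive) applies otherwise.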

OR5M1 = system: T2, OR5M1
T2 sequence (whole entry): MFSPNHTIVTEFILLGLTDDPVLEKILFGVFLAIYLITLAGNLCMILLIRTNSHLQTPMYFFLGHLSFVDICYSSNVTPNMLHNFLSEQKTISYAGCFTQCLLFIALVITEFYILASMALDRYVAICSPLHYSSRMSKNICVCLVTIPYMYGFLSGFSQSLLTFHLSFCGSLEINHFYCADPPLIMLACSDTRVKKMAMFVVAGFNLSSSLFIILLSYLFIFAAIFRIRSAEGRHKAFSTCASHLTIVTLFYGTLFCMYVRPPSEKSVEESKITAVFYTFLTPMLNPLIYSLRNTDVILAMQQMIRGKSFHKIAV
In short: as §1

OR5M8 (Homo sapiens) = molecular target: T3, OR5M8 (Homo sapiens) (UniProt Q8NGP6)
T3 sequence (whole entry): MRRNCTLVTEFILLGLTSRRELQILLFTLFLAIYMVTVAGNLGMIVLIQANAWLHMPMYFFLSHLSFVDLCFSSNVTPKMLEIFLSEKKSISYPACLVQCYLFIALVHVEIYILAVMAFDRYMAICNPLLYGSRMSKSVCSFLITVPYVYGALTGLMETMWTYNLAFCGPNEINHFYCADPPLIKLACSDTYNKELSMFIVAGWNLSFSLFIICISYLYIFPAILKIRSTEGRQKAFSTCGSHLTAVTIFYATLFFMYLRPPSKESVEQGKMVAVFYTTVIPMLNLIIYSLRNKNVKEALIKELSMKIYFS
In short: as §1

OR5M9 (Homo sapiens) = molecular target: T4, OR5M9 (Homo sapiens) (UniProt Q8NGP3)
T4 sequence (whole entry): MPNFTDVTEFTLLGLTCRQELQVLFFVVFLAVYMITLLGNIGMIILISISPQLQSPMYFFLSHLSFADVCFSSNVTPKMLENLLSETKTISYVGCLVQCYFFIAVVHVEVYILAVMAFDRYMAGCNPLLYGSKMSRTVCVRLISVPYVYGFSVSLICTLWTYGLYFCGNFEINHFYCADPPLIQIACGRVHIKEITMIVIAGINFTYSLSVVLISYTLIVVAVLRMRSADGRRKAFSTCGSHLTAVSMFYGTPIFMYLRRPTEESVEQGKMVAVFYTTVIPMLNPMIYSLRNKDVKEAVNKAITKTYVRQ
In short: as §1

OR5MA = system: T5, OR5MA
T5 sequence (whole entry): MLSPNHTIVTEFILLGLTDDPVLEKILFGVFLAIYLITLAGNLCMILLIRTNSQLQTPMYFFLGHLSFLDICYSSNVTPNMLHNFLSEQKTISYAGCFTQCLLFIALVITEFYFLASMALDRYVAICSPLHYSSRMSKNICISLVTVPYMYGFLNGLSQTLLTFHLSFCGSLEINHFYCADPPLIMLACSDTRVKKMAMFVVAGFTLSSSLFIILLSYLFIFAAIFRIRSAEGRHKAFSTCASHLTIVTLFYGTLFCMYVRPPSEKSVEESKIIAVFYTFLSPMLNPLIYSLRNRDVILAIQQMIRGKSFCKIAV
In short: as §1

OR5P2 (Homo sapiens) = molecular target: T6, OR5P2 (Homo sapiens) (UniProt Q8WZ92)
T6 sequence (whole entry): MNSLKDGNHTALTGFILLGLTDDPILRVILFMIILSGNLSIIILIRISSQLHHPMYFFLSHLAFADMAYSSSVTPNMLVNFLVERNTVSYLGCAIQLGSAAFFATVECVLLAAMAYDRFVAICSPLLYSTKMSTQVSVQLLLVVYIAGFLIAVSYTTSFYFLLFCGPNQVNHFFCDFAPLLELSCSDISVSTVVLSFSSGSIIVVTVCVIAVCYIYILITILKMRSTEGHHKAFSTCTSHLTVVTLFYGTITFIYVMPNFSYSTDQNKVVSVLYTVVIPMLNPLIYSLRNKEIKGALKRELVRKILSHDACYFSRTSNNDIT
In short: as §1

OR5P3 (Homo sapiens) = molecular target: T7, OR5P3 (Homo sapiens) (UniProt Q8WZ94)
T7 sequence (whole entry): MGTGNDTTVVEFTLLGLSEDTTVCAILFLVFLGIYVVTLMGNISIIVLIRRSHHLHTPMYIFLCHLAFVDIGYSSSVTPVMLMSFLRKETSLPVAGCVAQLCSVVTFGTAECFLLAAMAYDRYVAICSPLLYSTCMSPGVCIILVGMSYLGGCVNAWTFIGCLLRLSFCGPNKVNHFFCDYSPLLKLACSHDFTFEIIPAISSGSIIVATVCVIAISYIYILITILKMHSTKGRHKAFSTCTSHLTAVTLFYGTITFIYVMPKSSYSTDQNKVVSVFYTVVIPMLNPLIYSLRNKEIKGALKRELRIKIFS
In short: as §1

OR5R1 = system: T8, OR5R1
T8 sequence (whole entry): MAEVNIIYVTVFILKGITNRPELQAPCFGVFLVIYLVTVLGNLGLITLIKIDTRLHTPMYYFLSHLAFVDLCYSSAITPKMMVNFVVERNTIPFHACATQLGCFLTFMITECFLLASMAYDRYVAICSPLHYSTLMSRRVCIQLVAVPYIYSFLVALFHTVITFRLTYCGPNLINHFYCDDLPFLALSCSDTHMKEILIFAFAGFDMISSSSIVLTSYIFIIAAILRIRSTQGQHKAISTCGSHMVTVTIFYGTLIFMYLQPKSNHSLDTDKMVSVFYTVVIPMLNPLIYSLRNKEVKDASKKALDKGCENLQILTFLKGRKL
In short: as §1

OR5T1 (Homo sapiens) = molecular target: T9, OR5T1 (Homo sapiens) (UniProt Q8NG75)
T9 sequence (whole entry): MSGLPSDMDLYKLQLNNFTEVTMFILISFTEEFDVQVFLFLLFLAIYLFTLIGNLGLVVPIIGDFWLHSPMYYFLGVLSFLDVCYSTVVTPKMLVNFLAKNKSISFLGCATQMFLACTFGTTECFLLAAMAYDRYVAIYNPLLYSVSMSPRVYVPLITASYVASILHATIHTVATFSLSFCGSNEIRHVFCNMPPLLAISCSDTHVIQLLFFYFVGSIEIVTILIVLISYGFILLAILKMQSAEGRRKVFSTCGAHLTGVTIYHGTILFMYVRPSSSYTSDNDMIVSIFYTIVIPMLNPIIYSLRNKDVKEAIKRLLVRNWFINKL
In short: as §1

OR5T1 = system: T10, OR5T1
T10 sequence (whole entry): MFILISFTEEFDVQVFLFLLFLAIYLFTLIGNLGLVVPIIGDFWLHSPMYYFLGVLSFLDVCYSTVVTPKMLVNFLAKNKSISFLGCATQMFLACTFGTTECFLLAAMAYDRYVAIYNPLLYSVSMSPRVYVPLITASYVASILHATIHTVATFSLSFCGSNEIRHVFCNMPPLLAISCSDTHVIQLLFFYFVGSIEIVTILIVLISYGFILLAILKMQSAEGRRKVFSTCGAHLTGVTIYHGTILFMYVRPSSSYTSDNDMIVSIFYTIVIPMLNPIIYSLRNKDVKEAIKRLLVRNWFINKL
In short: as §1

OR5T2 [1] = system: T11, OR5T2
T11 sequence (whole entry): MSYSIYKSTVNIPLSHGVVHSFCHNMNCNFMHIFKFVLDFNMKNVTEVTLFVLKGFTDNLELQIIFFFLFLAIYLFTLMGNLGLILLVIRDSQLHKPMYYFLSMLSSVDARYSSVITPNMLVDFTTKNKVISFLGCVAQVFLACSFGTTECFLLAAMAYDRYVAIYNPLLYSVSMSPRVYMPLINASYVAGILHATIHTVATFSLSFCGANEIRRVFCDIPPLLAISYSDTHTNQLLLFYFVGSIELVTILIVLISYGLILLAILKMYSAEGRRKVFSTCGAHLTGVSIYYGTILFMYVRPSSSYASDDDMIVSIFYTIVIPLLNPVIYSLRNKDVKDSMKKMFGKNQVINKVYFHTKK
In short: as §1

OR5T2 [2] = system: T12, OR5T2; remark: listed apart in the source
T12 sequence (whole entry): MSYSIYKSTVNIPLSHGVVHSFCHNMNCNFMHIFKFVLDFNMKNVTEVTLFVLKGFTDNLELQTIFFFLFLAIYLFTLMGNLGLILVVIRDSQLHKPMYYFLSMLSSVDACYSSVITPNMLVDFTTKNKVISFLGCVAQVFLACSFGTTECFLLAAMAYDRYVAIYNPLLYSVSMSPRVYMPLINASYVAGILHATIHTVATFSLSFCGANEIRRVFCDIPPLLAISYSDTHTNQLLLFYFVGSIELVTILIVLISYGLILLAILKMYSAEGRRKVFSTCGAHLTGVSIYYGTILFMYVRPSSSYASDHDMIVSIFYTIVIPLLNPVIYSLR
In short: as §1

OR5T3 = system: T13, OR5T3
T13 sequence (whole entry): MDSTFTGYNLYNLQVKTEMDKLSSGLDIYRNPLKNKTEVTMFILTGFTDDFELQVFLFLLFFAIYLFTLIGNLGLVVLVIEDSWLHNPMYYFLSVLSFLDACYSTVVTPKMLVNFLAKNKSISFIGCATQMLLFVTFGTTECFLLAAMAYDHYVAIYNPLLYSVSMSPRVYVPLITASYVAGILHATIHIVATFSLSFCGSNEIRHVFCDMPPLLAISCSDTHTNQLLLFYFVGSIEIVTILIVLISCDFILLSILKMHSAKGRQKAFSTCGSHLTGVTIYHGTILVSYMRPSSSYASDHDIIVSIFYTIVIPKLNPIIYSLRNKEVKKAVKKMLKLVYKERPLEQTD
In short: as §1

OR5V1 (Homo sapiens) = molecular target: T14, OR5V1 (Homo sapiens) (UniProt Q9UGF6)
T14 sequence (whole entry): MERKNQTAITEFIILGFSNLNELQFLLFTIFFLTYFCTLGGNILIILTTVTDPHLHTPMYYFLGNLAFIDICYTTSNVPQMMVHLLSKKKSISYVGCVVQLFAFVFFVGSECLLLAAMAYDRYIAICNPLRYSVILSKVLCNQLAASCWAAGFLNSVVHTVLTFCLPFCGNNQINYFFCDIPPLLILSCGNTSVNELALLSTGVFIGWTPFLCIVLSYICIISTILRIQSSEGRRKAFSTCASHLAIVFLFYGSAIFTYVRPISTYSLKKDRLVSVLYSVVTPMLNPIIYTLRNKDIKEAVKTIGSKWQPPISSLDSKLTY
In short: as §1

OR5W2 = system: T15, OR5W2
T15 sequence (whole entry): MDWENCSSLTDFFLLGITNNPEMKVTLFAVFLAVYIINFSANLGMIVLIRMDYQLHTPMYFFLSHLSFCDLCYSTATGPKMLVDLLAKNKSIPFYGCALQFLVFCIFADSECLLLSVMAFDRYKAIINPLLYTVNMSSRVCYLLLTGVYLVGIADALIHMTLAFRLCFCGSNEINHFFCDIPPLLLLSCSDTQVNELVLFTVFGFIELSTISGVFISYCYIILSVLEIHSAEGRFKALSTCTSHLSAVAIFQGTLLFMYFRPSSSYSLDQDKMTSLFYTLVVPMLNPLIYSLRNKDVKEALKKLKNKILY
In short: as §1

OR6A2 (Homo sapiens) = molecular target: T16, OR6A2 (Homo sapiens) (UniProt O95222)
T16 sequence (whole entry): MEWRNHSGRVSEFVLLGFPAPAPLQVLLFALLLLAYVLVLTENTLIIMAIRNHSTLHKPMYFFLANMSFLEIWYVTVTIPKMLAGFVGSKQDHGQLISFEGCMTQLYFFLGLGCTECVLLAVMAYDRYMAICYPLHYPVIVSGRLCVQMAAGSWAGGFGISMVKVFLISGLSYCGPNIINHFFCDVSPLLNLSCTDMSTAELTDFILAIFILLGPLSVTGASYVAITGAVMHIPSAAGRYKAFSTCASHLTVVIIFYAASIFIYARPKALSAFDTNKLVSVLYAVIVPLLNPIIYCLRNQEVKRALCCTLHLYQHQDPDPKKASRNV
In short: as §1

Measured: odorant receptor agonist call

COC(=O)c1ccccc1O
active: OR5P3 (Homo sapiens)
inactive: all other assays above

O=C1CCCCCCCCCCCC(=O)OCCO1
inactive: all assays above

CCCCCCCCOC(C)=O
inactive: all assays above

c1cnccn1
inactive: all assays above
